This is one part of the list. Most entries show no effect beyond the scatter of the controls.

Chains of the proteins cited; added tags and fusions are not shown. Lines headed by an entry give the natural chain unless they say otherwise; changes in a name come on top.
UniProt Q9JLI6: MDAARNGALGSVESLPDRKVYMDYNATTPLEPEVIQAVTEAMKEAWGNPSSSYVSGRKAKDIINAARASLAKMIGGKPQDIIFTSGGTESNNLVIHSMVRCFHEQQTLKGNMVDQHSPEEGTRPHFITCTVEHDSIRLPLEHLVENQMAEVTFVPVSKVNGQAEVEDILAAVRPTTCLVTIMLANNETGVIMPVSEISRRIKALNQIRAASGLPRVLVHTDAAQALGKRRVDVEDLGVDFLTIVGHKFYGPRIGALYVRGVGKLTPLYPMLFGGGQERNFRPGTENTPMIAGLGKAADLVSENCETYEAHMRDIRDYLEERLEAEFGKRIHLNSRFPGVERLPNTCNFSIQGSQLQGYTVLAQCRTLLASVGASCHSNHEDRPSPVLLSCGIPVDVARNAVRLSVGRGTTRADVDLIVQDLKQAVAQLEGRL
UniProt Q9QX11: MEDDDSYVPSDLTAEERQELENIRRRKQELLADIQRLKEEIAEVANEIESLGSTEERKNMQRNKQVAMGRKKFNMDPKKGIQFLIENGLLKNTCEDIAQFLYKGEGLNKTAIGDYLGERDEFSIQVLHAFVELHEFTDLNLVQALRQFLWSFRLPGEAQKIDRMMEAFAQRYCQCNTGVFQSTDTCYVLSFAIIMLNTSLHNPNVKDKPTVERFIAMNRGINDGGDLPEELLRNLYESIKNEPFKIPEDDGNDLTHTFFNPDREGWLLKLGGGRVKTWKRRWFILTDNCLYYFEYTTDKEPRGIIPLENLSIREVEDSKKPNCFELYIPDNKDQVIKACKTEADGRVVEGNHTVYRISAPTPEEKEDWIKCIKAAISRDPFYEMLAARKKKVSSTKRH
UniProt Q9QXA5: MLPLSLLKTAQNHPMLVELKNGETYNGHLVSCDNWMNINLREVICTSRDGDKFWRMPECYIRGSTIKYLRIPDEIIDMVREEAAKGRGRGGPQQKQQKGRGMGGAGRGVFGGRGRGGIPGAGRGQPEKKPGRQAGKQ
UniProt Q9ESV0: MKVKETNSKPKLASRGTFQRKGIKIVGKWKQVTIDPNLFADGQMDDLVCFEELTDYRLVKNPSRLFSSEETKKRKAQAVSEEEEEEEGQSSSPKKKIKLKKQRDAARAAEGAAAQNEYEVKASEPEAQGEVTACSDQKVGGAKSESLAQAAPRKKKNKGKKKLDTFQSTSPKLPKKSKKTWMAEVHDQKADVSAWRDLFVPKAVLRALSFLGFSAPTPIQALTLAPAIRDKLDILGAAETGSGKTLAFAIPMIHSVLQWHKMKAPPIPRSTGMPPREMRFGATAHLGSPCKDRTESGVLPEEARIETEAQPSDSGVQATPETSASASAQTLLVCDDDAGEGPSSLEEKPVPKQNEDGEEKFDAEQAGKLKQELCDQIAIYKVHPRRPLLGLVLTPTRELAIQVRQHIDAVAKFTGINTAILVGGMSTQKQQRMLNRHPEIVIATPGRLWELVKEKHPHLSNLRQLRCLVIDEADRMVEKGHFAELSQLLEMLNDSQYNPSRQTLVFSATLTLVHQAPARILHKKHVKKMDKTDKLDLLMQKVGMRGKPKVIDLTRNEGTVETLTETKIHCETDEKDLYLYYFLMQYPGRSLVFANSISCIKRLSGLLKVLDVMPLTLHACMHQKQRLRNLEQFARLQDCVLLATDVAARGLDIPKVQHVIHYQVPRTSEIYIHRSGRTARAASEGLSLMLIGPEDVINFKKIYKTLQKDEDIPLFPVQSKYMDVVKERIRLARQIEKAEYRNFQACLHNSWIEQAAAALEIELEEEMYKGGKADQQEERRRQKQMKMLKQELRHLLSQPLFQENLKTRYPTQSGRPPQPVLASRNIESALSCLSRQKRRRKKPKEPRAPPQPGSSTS
UniProt Q9QUJ7: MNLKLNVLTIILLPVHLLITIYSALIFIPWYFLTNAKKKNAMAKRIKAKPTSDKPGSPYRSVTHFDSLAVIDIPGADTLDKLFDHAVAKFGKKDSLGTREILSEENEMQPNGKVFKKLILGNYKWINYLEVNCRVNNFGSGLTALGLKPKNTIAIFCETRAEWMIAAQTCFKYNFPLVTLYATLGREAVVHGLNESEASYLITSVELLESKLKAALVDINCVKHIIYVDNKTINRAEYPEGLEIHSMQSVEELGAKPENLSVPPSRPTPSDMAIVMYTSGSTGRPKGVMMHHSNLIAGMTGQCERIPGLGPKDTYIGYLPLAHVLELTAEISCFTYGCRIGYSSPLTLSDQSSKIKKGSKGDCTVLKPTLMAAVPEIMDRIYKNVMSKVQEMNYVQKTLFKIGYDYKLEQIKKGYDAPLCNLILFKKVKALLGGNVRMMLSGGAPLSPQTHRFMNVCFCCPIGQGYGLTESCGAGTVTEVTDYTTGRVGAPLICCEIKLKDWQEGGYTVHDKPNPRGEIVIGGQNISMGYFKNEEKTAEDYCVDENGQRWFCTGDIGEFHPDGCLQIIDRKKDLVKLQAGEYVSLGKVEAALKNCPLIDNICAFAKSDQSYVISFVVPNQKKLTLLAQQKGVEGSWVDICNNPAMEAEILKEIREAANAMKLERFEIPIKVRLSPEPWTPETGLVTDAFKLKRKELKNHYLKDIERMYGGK
UniProt Q9JKX3: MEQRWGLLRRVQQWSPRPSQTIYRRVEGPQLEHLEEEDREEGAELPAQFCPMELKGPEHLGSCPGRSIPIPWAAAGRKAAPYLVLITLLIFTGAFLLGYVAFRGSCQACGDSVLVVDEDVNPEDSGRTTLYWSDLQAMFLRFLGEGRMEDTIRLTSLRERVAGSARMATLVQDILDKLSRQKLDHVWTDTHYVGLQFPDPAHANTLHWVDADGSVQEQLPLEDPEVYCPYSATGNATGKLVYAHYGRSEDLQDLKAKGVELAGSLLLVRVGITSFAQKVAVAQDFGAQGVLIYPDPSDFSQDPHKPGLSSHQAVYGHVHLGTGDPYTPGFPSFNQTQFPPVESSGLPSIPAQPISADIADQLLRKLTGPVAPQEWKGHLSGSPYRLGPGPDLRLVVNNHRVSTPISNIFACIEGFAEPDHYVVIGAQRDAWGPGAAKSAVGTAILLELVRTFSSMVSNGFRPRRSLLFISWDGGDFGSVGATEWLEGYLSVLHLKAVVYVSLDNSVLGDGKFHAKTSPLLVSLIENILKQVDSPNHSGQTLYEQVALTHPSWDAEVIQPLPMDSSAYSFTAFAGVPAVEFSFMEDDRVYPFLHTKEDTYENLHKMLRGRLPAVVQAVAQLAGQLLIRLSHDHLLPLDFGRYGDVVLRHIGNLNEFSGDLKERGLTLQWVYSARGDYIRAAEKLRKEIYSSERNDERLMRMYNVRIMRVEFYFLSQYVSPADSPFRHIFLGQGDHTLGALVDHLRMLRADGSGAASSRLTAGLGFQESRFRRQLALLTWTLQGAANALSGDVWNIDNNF
UniProt Q9QUI1: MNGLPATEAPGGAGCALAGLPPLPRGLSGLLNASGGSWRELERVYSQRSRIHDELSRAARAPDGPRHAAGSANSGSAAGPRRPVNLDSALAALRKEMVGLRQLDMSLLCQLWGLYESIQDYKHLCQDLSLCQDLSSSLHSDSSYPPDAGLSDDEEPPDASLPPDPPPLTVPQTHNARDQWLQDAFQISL
UniProt Q9ESP1: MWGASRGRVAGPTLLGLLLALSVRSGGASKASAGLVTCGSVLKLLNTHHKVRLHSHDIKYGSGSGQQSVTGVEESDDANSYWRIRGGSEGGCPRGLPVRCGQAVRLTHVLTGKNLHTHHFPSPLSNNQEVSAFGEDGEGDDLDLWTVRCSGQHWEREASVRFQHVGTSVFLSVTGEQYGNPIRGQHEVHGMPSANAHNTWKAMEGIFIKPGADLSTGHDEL
UniProt Q9JKV5: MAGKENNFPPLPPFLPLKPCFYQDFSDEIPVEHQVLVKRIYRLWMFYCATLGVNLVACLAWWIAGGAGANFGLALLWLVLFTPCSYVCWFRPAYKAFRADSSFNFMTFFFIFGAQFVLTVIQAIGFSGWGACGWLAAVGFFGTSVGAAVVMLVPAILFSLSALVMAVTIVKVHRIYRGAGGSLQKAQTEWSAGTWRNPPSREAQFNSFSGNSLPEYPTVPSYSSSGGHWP
UniProt Q9JLJ4: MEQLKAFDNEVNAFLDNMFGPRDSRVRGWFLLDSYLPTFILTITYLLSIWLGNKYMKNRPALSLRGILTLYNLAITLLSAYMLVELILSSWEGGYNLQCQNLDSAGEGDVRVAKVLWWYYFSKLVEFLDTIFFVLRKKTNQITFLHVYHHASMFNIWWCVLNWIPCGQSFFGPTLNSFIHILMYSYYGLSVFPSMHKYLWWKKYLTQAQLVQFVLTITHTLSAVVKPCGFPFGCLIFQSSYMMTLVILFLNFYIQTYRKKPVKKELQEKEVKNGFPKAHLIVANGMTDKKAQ
UniProt Q9ET54: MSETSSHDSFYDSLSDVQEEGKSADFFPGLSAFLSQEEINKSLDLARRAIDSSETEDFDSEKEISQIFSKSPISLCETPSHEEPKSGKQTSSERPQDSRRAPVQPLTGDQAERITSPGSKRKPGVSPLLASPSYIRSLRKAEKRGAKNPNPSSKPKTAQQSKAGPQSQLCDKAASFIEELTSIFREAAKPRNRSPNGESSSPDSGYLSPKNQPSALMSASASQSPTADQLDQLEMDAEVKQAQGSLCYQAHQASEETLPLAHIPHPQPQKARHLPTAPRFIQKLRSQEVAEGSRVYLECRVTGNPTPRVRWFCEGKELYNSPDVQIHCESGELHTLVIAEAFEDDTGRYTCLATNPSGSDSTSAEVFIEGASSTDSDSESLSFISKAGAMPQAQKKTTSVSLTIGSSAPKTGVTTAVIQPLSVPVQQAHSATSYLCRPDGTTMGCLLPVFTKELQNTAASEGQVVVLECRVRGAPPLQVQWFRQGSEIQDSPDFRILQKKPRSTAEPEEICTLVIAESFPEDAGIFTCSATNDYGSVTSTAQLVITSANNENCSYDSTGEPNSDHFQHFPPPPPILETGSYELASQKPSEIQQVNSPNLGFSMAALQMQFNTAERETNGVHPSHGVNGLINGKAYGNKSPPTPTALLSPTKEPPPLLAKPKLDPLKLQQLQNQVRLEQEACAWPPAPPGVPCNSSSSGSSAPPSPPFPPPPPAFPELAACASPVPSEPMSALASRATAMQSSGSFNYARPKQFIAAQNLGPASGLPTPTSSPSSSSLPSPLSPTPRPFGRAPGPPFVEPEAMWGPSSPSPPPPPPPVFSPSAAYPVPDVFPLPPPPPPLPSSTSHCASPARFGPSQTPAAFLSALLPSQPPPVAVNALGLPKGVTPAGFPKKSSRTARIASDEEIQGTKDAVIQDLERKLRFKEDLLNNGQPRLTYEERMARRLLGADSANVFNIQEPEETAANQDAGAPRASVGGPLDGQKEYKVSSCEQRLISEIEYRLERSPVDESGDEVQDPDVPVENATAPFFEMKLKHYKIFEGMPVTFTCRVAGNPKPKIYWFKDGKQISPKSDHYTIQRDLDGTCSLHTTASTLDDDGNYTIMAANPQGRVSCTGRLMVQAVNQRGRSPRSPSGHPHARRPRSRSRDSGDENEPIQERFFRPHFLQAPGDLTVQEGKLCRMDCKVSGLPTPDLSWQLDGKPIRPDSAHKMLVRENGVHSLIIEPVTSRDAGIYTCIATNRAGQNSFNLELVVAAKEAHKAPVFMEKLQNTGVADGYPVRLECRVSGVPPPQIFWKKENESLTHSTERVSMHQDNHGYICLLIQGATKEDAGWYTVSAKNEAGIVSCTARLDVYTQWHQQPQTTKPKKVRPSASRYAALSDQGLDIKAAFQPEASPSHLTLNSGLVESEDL
UniProt Q9JKC6: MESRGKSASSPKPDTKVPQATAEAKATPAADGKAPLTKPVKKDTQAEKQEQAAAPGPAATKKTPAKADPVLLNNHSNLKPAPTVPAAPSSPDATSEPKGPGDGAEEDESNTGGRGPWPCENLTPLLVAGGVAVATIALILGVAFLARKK
UniProt Q9JJC6: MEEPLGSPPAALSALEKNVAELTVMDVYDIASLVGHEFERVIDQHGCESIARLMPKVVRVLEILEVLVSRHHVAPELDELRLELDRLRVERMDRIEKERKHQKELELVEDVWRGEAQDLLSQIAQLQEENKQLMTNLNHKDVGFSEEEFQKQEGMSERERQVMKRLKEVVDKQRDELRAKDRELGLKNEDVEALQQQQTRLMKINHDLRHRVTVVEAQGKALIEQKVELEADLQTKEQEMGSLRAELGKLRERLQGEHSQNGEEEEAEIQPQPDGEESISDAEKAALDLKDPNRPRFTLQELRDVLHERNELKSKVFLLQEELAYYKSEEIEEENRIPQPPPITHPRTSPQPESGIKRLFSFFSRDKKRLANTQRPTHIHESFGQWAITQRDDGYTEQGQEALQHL

Compound in the test: CN[C@@H]1C[C@H]2O[C@@](C)([C@@H]1OC)n1c3ccccc3c3c4c(c5c6ccccc6n2c5c31)C(=O)NC4 [staurosporine]
Nature of the test: log2 fold change of tryptic peptide abundance, ligand vs vehicle (limited proteolysis) (log2 ratio); higher = more trypsin-susceptible (destabilized). The settings on record: ligand concentration: 20 uM; sample: mouse liver crude lysate; replicate design: treated separately.
“UniProt Q9JLI6 (peptide sequence: LEAEFGKR, peptide start residue: 322)”: the log2 fold change was -0.667.
Turning to “UniProt Q9QX11 (peptide sequence: RKQELLADIQR, peptide start residue: 26)”, the log2 fold change was -0.202.
Take “UniProt Q9QXA5 (peptide sequence: DGDKFWR, peptide start residue: 49)”: the log2 fold change is -0.256.
With “UniProt Q9ESV0 (peptide sequence: FGATAHLGSPCKDRTESGVLPEEAR, peptide start residue: 280)”, the log2 fold change is -0.168.
On to “UniProt Q9QUJ7 (peptide sequence: VGAPLICCEIK, peptide start residue: 488)”, for which the log2 fold change came out at 0.217.
For “UniProt Q9JJY4 (peptide sequence: YMRDPTFVR, peptide start residue: 258)”, the log2 fold change came to 0.303.
The same measure for “UniProt Q9JKX3 (peptide sequence: GPEHLGSCPGR, peptide start residue: 56)”: 0.158; for “UniProt Q9QUI1 (peptide sequence: IHDELSR, peptide start residue: 51)”: -0.501; for “UniProt Q9ESP1 (peptide sequence: LTHVLTGK, peptide start residue: 106)”: -0.264.
Turning to “UniProt Q9JKV5 (peptide sequence: AQTEWSAGTWR, peptide start residue: 186)”, the log2 fold change turned out to be 0.162.
On to “UniProt Q9JLJ4 (peptide sequence: NGFPKAHLIVANGMTDKK, peptide start residue: 273)”, for which the log2 fold change was -0.0952.
For “UniProt Q9ET54 (peptide sequence: GVTPAGFPKK, peptide start residue: 883)”, the log2 fold change stood at 0.101.
For “UniProt Q9JKC6 (peptide sequence: QEQAAAPGPAATK, peptide start residue: 49)”, the log2 fold change amounted to 0.49.
For “UniProt Q9JJC6 (peptide sequence: TSPQPESGIKR, peptide start residue: 348)”, the log2 fold change is -0.16.

These data come from the supplement of paper PMC12819154, “High-throughput peptide-centric local stability assay extends protein–ligand identification to membrane proteins, tissues and bacteria” (Nature Structural & Molecular Biology, 2025).
